{"sequences": {"note": "Sequences of proteins named here, by UniProt entry; tags and fusion partners are left off. A change or cut given only in a name is not applied to a line headed by its entry.", "UniProt Q9SYS6": "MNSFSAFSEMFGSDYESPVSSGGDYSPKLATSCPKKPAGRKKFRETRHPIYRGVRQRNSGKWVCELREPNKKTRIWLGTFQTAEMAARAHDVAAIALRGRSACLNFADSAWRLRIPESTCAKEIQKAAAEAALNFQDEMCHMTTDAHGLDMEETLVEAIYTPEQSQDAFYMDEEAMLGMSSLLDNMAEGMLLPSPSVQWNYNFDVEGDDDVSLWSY", "UniProt Q9M0L0": "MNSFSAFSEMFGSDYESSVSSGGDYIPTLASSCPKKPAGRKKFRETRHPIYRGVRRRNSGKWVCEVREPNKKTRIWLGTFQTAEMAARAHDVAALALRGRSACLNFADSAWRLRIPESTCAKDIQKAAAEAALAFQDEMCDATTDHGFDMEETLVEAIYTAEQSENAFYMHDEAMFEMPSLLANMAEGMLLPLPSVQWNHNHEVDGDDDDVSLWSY"}, "source": "patent US6417428", "key": {"[1]": {"molecular_target": "CBF2 (Arabidopsis thaliana) (UniProt Q9SYS6)", "assay": "one hybrid", "settings": "activates CRT/DRE-lacZ reporters in yeast; protein in cells; protein details: expressed in yeast from pDB20.1 (ADC1 promoter); label: 32P end-filled (probe)"}, "[2]": {"molecular_target": "CBF3 (Arabidopsis thaliana) (UniProt Q9M0L0)", "assay": "one hybrid", "settings": "activates CRT/DRE-lacZ reporters in yeast; protein in cells; protein details: expressed in yeast from pDB20.1 (ADC1 promoter); label: 32P end-filled (probe)"}}}
{"sequence": "GATCATTTCATGGCCGACCTGCTTTTT (double strand) [MT50 COR15a C-repeat/DRE]", "values": [{"measurement": "activity on this sequence", "setting": "[1]", "value": "active"}, {"measurement": "activity on this sequence", "setting": "[2]", "value": "active"}]}
